The target of assay [1] is StTGA2.2, yeast two-hybrid bait fusion (potato (Solanum tuberosum)). The assay is described as follows: two-hybrid; Matchmaker Gold, Y2H Gold strain; bait pGBKT7 (BD), prey pGADT7 (AD); growth on SD -L-W-H-A + Xgal + Aur; for the StNPRs dilutions spotted also on media with 0.1 mM or 1.0 mM SA, which promoted the interactions.
Assay [2] concerns the target StTGA2.3, yeast two-hybrid bait fusion (potato (Solanum tuberosum)). Described as above.

This passage reports binding results from publication PMC10022624, “A mini-TGA protein modulates gene expression through heterogeneous association with transcription factors” (Plant Physiology, 2022).

Results are given in words; binding and its absence hold for the method and conditions named. Binding can be weak; no strength is given.

In the case of “StNPR1, yeast two-hybrid fusion (from UniProt A0A9F1UC91)”, the binding result in assay [1] and in assay [2] was “binds” throughout.
